According to publication doi:10.1101/2022.10.04.510822 (bioRxiv, 2022):
Like-named read-outs stand apart in the source and are kept apart here. These are yes or no findings as the source states them, for the method shown. In cells and extracts the contact can be indirect. Some entries that bind do so weakly or less than the wild type. For some assays here: Sequences can lack the tags named with a protein.

Sequences of proteins named here, by UniProt entry; tags and fusion partners are left off. A change or cut given only in a name is not applied to a line headed by its entry.
UniProt O95166, whole entry: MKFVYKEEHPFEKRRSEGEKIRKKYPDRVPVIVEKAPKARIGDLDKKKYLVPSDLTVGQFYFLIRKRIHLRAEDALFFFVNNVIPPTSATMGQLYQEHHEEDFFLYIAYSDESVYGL
UniProt Q04206, whole entry: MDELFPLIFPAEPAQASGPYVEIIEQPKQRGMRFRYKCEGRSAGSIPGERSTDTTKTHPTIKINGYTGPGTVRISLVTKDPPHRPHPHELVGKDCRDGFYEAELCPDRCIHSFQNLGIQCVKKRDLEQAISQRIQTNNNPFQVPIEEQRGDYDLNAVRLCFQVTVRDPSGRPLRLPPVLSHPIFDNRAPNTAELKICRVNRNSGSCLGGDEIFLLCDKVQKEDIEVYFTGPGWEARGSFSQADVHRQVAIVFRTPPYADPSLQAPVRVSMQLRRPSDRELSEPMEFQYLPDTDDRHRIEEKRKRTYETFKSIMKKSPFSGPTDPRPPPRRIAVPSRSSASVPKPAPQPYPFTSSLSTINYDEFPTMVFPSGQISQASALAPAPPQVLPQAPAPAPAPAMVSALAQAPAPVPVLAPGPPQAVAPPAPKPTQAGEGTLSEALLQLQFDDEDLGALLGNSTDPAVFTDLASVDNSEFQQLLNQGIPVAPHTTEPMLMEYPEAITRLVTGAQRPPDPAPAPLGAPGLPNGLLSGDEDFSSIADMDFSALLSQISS
UniProt P51532, whole entry: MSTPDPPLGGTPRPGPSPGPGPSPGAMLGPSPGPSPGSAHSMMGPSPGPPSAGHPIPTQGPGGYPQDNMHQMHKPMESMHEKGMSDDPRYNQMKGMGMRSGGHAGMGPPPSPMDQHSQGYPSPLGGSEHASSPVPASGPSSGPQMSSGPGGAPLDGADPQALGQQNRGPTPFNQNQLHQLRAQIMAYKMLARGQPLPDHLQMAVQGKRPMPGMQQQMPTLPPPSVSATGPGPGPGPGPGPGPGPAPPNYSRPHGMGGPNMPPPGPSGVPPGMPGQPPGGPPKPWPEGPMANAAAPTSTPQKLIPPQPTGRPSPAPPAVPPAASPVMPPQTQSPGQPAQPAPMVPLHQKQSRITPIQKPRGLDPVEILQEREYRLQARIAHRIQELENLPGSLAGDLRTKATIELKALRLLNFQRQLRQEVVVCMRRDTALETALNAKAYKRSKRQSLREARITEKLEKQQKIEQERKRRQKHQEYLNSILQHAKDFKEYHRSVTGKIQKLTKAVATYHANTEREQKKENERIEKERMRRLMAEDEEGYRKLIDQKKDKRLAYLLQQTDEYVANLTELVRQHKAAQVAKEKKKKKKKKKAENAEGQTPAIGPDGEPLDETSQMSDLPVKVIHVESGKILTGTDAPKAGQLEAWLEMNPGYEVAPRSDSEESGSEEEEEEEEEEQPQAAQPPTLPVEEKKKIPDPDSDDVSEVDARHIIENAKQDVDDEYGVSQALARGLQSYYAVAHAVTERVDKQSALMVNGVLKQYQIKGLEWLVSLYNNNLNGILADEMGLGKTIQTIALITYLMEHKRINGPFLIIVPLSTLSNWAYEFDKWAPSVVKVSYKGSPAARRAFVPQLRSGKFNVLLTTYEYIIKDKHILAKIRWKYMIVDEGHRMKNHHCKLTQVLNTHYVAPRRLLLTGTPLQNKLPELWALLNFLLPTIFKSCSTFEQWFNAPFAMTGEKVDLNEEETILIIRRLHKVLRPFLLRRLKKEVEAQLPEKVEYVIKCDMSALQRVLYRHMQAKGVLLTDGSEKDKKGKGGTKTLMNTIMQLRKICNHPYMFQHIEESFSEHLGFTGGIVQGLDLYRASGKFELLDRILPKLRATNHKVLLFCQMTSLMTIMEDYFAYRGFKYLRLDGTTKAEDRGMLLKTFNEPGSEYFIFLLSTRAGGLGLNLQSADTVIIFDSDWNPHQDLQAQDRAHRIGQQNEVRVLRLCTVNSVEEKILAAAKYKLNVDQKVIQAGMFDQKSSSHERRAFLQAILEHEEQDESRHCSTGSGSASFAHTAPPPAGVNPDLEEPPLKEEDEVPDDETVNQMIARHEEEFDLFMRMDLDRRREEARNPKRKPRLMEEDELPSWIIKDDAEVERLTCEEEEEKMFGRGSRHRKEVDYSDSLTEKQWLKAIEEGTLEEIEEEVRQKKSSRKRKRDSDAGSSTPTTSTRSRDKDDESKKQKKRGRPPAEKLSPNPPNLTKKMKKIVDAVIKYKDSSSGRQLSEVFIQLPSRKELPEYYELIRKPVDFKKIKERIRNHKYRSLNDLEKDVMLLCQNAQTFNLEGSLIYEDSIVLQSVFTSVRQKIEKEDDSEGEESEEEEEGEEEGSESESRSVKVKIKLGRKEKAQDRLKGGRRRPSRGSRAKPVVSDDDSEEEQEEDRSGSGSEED
UniProt P51531, whole entry: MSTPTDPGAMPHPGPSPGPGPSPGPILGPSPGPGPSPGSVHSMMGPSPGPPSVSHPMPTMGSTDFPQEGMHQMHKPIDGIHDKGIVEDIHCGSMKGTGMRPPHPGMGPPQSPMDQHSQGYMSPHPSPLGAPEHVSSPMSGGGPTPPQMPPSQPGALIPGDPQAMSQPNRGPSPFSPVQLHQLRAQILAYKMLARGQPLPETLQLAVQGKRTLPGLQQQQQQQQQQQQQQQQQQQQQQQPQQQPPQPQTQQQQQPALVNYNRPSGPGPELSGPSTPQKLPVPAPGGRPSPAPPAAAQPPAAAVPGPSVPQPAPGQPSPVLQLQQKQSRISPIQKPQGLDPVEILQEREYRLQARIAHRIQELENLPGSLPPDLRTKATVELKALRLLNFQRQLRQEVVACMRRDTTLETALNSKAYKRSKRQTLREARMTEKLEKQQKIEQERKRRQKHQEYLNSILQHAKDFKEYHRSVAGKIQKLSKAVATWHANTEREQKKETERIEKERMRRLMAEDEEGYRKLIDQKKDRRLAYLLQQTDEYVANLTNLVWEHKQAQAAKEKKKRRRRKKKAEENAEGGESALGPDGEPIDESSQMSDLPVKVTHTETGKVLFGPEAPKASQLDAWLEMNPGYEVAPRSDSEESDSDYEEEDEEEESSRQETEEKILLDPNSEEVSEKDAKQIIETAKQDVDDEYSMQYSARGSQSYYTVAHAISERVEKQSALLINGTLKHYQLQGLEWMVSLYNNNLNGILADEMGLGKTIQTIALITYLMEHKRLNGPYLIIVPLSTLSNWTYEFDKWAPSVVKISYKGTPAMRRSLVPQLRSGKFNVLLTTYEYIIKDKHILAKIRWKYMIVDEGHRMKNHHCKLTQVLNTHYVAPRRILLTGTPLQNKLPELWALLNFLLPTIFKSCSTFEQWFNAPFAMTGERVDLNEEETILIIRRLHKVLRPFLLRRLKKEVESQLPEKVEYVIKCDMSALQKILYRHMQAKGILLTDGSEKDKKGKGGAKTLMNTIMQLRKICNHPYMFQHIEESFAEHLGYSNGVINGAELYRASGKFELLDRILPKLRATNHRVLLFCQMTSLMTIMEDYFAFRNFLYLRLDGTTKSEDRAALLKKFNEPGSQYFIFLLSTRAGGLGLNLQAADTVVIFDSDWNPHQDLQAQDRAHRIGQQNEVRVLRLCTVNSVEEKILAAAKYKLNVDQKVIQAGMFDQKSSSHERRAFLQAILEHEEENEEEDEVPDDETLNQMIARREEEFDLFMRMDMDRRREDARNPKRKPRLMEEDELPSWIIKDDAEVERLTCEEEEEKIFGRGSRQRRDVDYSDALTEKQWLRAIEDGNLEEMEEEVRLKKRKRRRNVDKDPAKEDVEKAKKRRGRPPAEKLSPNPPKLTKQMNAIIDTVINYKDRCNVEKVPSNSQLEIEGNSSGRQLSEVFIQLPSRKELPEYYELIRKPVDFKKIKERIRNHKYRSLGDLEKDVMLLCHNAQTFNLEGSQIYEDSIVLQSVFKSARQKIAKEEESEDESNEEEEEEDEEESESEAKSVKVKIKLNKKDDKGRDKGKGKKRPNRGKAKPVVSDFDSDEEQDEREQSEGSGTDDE

T1: HA-WSTF wild-type (HEK293T) (UniProt Q9UIG0)
T1 sequence: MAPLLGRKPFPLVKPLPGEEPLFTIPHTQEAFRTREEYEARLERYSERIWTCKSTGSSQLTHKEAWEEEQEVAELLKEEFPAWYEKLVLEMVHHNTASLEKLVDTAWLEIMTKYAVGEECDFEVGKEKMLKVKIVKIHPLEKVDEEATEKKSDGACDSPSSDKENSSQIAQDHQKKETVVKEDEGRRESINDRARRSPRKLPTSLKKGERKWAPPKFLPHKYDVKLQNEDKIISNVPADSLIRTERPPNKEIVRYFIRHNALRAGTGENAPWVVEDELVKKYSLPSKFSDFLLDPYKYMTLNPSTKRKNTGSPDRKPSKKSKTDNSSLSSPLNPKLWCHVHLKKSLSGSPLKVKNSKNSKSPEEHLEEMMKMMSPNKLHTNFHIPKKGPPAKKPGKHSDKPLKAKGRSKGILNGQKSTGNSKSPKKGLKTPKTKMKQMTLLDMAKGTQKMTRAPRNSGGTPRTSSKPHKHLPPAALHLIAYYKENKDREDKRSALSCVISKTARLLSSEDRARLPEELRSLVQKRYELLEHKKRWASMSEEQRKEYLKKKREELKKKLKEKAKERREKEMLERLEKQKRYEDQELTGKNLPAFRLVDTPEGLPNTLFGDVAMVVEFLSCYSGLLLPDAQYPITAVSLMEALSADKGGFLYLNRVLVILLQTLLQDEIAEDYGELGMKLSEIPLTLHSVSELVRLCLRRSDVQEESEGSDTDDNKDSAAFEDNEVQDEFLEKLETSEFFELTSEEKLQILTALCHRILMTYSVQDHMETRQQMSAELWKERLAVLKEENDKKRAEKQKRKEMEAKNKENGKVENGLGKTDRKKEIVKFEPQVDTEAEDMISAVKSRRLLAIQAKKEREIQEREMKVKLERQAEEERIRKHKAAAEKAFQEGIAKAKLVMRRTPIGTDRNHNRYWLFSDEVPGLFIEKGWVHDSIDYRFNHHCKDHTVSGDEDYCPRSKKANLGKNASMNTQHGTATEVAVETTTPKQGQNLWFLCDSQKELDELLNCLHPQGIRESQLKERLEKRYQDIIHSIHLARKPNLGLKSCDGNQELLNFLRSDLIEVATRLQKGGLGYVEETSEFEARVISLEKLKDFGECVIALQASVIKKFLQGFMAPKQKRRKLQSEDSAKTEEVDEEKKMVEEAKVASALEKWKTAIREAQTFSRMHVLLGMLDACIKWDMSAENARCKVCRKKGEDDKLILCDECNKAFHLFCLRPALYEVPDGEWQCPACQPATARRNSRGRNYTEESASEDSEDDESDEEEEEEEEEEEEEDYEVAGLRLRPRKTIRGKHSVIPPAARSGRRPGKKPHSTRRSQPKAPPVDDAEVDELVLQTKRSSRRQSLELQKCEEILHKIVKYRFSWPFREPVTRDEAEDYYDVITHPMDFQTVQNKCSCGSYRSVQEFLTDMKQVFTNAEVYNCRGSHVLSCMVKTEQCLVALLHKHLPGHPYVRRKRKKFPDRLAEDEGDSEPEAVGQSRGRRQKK


Columns and labels:
Experiment in all cases: co-IP
[1] = target: GABARAP, endogenous in HEK293T (human (endogenous in HEK293T)) (UniProt O95166)
[2] = target: T1, HA-WSTF wild-type (HEK293T)
[3] = target: GABARAP, endogenous in HEK293T (human (endogenous in HEK293T)) (UniProt O95166); remark: listed apart in the source
[4] = target: p65, endogenous in IMR90 (human (endogenous in IMR90)) (UniProt Q04206)

Molecule	binding [1]	also measured
HA-WSTF △474-483 (HEK293T) (from UniProt Q9UIG0 1-1483)	no binding	
BRG1, endogenous in HEK293T (from UniProt P51532 1-1647)	binds weakly	
BRM, endogenous in HEK293T (from UniProt P51531 1-1590)	binds weakly	
T7-p65 wild-type (T7-RelA) (from UniProt Q04206 1-551)		binding [2]: binds
HA-WSTF L476A (HEK293T) (from UniProt Q9UIG0 1-1483)	no binding	
T7-p65 3KR (T7-RelA(3KR)) (from UniProt Q04206 1-551)		binding [2]: binds
HA-WSTF wild-type (HEK293T) (protein, UniProt Q9UIG0 1-1483) MAPLLGRKPFPLVKPLPGEEPLFTIPHTQEAFRTREEYEARLERYSERIWTCKSTGSSQLTHKEAWEEEQEVAELLKEEFPAWYEKLVLEMVHHNTASLEKLVDTAWLEIMTKYAVGEECDFEVGKEKMLKVKIVKIHPLEKVDEEATEKKSDGACDSPSSDKENSSQIAQDHQKKETVVKEDEGRRESINDRARRSPRKLPTSLKKGERKWAPPKFLPHKYDVKLQNEDKIISNVPADSLIRTERPPNKEIVRYFIRHNALRAGTGENAPWVVEDELVKKYSLPSKFSDFLLDPYKYMTLNPSTKRKNTGSPDRKPSKKSKTDNSSLSSPLNPKLWCHVHLKKSLSGSPLKVKNSKNSKSPEEHLEEMMKMMSPNKLHTNFHIPKKGPPAKKPGKHSDKPLKAKGRSKGILNGQKSTGNSKSPKKGLKTPKTKMKQMTLLDMAKGTQKMTRAPRNSGGTPRTSSKPHKHLPPAALHLIAYYKENKDREDKRSALSCVISKTARLLSSEDRARLPEELRSLVQKRYELLEHKKRWASMSEEQRKEYLKKKREELKKKLKEKAKERREKEMLERLEKQKRYEDQELTGKNLPAFRLVDTPEGLPNTLFGDVAMVVEFLSCYSGLLLPDAQYPITAVSLMEALSADKGGFLYLNRVLVILLQTLLQDEIAEDYGELGMKLSEIPLTLHSVSELVRLCLRRSDVQEESEGSDTDDNKDSAAFEDNEVQDEFLEKLETSEFFELTSEEKLQILTALCHRILMTYSVQDHMETRQQMSAELWKERLAVLKEENDKKRAEKQKRKEMEAKNKENGKVENGLGKTDRKKEIVKFEPQVDTEAEDMISAVKSRRLLAIQAKKEREIQEREMKVKLERQAEEERIRKHKAAAEKAFQEGIAKAKLVMRRTPIGTDRNHNRYWLFSDEVPGLFIEKGWVHDSIDYRFNHHCKDHTVSGDEDYCPRSKKANLGKNASMNTQHGTATEVAVETTTPKQGQNLWFLCDSQKELDELLNCLHPQGIRESQLKERLEKRYQDIIHSIHLARKPNLGLKSCDGNQELLNFLRSDLIEVATRLQKGGLGYVEETSEFEARVISLEKLKDFGECVIALQASVIKKFLQGFMAPKQKRRKLQSEDSAKTEEVDEEKKMVEEAKVASALEKWKTAIREAQTFSRMHVLLGMLDACIKWDMSAENARCKVCRKKGEDDKLILCDECNKAFHLFCLRPALYEVPDGEWQCPACQPATARRNSRGRNYTEESASEDSEDDESDEEEEEEEEEEEEEDYEVAGLRLRPRKTIRGKHSVIPPAARSGRRPGKKPHSTRRSQPKAPPVDDAEVDELVLQTKRSSRRQSLELQKCEEILHKIVKYRFSWPFREPVTRDEAEDYYDVITHPMDFQTVQNKCSCGSYRSVQEFLTDMKQVFTNAEVYNCRGSHVLSCMVKTEQCLVALLHKHLPGHPYVRRKRKKFPDRLAEDEGDSEPEAVGQSRGRRQKK		binding [3]: binds
WSTF, endogenous in IMR90 (protein, UniProt Q9UIG0 1-1483) MAPLLGRKPFPLVKPLPGEEPLFTIPHTQEAFRTREEYEARLERYSERIWTCKSTGSSQLTHKEAWEEEQEVAELLKEEFPAWYEKLVLEMVHHNTASLEKLVDTAWLEIMTKYAVGEECDFEVGKEKMLKVKIVKIHPLEKVDEEATEKKSDGACDSPSSDKENSSQIAQDHQKKETVVKEDEGRRESINDRARRSPRKLPTSLKKGERKWAPPKFLPHKYDVKLQNEDKIISNVPADSLIRTERPPNKEIVRYFIRHNALRAGTGENAPWVVEDELVKKYSLPSKFSDFLLDPYKYMTLNPSTKRKNTGSPDRKPSKKSKTDNSSLSSPLNPKLWCHVHLKKSLSGSPLKVKNSKNSKSPEEHLEEMMKMMSPNKLHTNFHIPKKGPPAKKPGKHSDKPLKAKGRSKGILNGQKSTGNSKSPKKGLKTPKTKMKQMTLLDMAKGTQKMTRAPRNSGGTPRTSSKPHKHLPPAALHLIAYYKENKDREDKRSALSCVISKTARLLSSEDRARLPEELRSLVQKRYELLEHKKRWASMSEEQRKEYLKKKREELKKKLKEKAKERREKEMLERLEKQKRYEDQELTGKNLPAFRLVDTPEGLPNTLFGDVAMVVEFLSCYSGLLLPDAQYPITAVSLMEALSADKGGFLYLNRVLVILLQTLLQDEIAEDYGELGMKLSEIPLTLHSVSELVRLCLRRSDVQEESEGSDTDDNKDSAAFEDNEVQDEFLEKLETSEFFELTSEEKLQILTALCHRILMTYSVQDHMETRQQMSAELWKERLAVLKEENDKKRAEKQKRKEMEAKNKENGKVENGLGKTDRKKEIVKFEPQVDTEAEDMISAVKSRRLLAIQAKKEREIQEREMKVKLERQAEEERIRKHKAAAEKAFQEGIAKAKLVMRRTPIGTDRNHNRYWLFSDEVPGLFIEKGWVHDSIDYRFNHHCKDHTVSGDEDYCPRSKKANLGKNASMNTQHGTATEVAVETTTPKQGQNLWFLCDSQKELDELLNCLHPQGIRESQLKERLEKRYQDIIHSIHLARKPNLGLKSCDGNQELLNFLRSDLIEVATRLQKGGLGYVEETSEFEARVISLEKLKDFGECVIALQASVIKKFLQGFMAPKQKRRKLQSEDSAKTEEVDEEKKMVEEAKVASALEKWKTAIREAQTFSRMHVLLGMLDACIKWDMSAENARCKVCRKKGEDDKLILCDECNKAFHLFCLRPALYEVPDGEWQCPACQPATARRNSRGRNYTEESASEDSEDDESDEEEEEEEEEEEEEDYEVAGLRLRPRKTIRGKHSVIPPAARSGRRPGKKPHSTRRSQPKAPPVDDAEVDELVLQTKRSSRRQSLELQKCEEILHKIVKYRFSWPFREPVTRDEAEDYYDVITHPMDFQTVQNKCSCGSYRSVQEFLTDMKQVFTNAEVYNCRGSHVLSCMVKTEQCLVALLHKHLPGHPYVRRKRKKFPDRLAEDEGDSEPEAVGQSRGRRQKK		binding [4]: binds
